From PubChem BioAssay AID528 (NMMLSC, 2006)
The campaign covered roughly 24,000 compounds. Fewer than 10 were called active. The inconclusive results got no clear call from the source; some entries with a clear call stand among them for comparison.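 The calls were made as follows: active = fluorescent ligand binding to cells raised by more than 40% of the manganese-induced maximum; inconclusive = compound's own fluorescence above 85% of the ligand control signal; inactive = the rest.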

The chains behind the UniProt entries cited, without tags or fusion partners.
UniProt P13612, whole entry, looked up: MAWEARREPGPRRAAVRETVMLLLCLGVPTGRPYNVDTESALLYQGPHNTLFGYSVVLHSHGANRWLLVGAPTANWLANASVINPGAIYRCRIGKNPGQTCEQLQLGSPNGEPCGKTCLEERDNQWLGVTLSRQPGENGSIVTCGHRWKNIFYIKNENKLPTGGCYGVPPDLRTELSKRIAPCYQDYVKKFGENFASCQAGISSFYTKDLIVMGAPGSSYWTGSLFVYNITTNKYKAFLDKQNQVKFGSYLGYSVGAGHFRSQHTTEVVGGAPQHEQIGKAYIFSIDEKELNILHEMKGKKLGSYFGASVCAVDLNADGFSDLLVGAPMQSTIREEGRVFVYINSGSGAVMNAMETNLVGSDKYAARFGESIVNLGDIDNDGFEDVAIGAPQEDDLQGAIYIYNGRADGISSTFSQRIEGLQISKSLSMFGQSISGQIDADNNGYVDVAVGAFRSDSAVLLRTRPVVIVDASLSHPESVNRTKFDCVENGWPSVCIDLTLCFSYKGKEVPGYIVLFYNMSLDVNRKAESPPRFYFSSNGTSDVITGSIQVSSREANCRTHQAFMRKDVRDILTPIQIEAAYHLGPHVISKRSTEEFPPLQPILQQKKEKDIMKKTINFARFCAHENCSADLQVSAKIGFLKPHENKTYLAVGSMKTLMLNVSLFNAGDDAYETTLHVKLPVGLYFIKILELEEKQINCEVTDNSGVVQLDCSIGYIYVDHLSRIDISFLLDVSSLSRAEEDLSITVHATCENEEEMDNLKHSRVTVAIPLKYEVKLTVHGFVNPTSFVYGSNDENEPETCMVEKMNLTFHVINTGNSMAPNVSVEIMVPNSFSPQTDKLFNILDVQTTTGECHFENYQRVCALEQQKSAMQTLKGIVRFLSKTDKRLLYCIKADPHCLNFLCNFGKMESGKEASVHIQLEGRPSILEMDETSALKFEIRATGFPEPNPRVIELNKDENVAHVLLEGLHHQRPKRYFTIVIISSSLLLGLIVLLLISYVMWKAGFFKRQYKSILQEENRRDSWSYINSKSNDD

Target: Integrin alpha-4 (Homo sapiens) (UniProt P13612)
Experiment: enhancers of LDV-FITC binding to VLA-4 integrin, primary screen, Jurkat cells, flow cytometry (AID 528);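 as to activation: 0% = ligand binding without compound and 100% = manganese-stimulated maximal binding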
Settings: active compounds read high, screened at 10 µM (by protocol)

SMILES | activation
O=C(NCSc1ccncn1)c1ccccc1 | inconclusive
O=C(NCC1CCCO1)c1csc2c1CCCC2 (stereo unspecified) | inactive: -3%
Cc1nn(C(C)C(=O)O)c(=O)c2c1sc1ccccc12 (stereo unspecified) | inconclusive
CSc1nc(N)nc(SCC(=O)c2ccc(C)cc2)c1C#N | inconclusive
CC(=O)Nc1nc(C)c(-c2csc(Nc3ccc(O)cc3)n2)s1 | inactive: -28%
CCOC(=O)c1ccc(-c2nnc(-c3ccc(Cl)cc3Cl)o2)cc1 | inconclusive
O=C1CCc2cc(S(=O)(=O)N3CCN(c4cccc(C(F)(F)F)c4)CC3)ccc2N1 | inactive: -1%
CCOC(=O)CCN(Cc1cccs1)S(=O)(=O)c1ccc(F)cc1 | inconclusive
Cc1cc(N2CCN(C3CCCCC3)CC2)nc2cccc(O)c12 | inconclusive
Nc1ccnc(C(F)(F)F)c1C(=O)c1ccccc1 | inactive: -6%
Cc1ccc(NC(=O)COS(=O)c2ccc(C)cc2)cc1 (stereo unspecified) | inactive: -1.5%
O=C(Nc1cccc(-c2nc3cccnc3s2)c1)c1ccco1 | inconclusive
COc1ccc(N2CCN(Cc3nc4c(c(=O)n(C)c(=O)n4C)n3Cc3ccccc3C)CC2)cc1 | inactive: 4%
Cc1cc(N(CN2CCCC2=O)C(=O)c2ccc(F)cc2)no1 | inconclusive
CCC1Oc2ccc(Cl)cc2N(CC(=O)O)C1=O (stereo unspecified) | inactive: 2%
Cc1cc(NC(=O)CSc2nnc(C3CC3)n2C)no1 | inconclusive
COc1ccccc1N=c1oc2cc(O)ccc2cc1C(N)=O | inconclusive
Nc1ccc2c(c1)CCC2=O | inconclusive
COc1ccc(CCNC(=O)CCCCn2c(=O)[nH]c3ccccc3c2=O)cc1OC | inactive: 4%
COCc1cc(C)nc(SCC(=O)Nc2cccc(C)c2)c1C#N | inconclusive
Nc1nc(-c2ccc(Br)s2)c(Br)s1 | inactive: 0%
CC(C)(C)n1ncc2c(=O)n(Cc3c(F)cccc3Cl)cnc21 | inconclusive
CCCCc1nc2c(=O)[nH]c3ccccc3c2o1 | inconclusive
N#CC1=C(N)n2c(s/c(=C\c3ccco3)c2=O)=C(C#N)C1c1ccco1 (stereo unspecified) | inconclusive
COCCCNC(=O)CCCn1c(=O)c2ccccc2n(CC(=O)Nc2c(C)cc(C)cc2C)c1=O | inactive: -8.5%
CCN1CCN(c2cc(C)c3cc(NC(=O)Cc4ccc(OC)c(OC)c4)ccc3n2)CC1 | inactive: -8%

SMILES | activation
Cc1ccc(S(=O)(=O)NCCn2c(C)cc3ccccc32)cc1 | inconclusive
c1ccc(Nc2nc3ccccc3n3cnnc23)cc1 | inconclusive
Cc1ccc(S(=O)(=O)NCC(=O)N(CC(=O)NC2CCCCC2)Cc2ccco2)cc1 | inactive: 2%
CCOC(=O)C1CCN(C(=O)Cc2c(C(=O)O)[nH]c3ccccc23)CC1 | inconclusive
Cc1ccc2nc(C)cc(NCCO)c2c1 | inconclusive
COc1ccc(C2CCCN2C(=O)Nc2ccc(F)cc2)cc1OC (stereo unspecified) | inactive: 5%
Cc1ccc(-c2nc(CSCC(=O)N3CCN(c4ccccn4)CC3)c(C)o2)cc1 | inconclusive
O=C1c2oc3ccccc3c(=O)c2C(c2cccc(O)c2)N1CCCN1CCOCC1 (stereo unspecified) | inconclusive
Cc1ccc2oc(=O)c3cnn(CC(=O)NCCc4ccsc4)c3c2c1 | inconclusive
COc1ccc(CCNC(=O)C2CCN(Cc3nc(-c4ccccc4C)oc3C)CC2)cc1OC | inactive: -5%
Cc1nc(S(=O)(=O)N(C)c2ccccc2)c(C#N)c(C)c1Cl | inconclusive
CCOCCCn1c(=S)[nH]c2cc(C(=O)NCCN(CC)CC)ccc2c1=O | inconclusive
CCCc1cc(C(=O)Nc2cc(Br)ccc2O)no1 | inconclusive
CC(=O)Nc1ccc(S(=O)(=O)NCCc2csc(C)n2)cc1 | inconclusive
COc1ccc(NC(=O)c2nc3nc(C)cc(C(F)F)n3n2)cc1OC | inconclusive
COc1cc(-c2nnc(SCC(=O)c3ccccc3)o2)cc(OC)c1OC | inconclusive
COc1ccc(N2C(=O)CC(N3CCN(S(=O)(=O)c4c(F)cccc4F)CC3)C2=O)cc1OC (stereo unspecified) | inconclusive
CCn1cc(C(=O)N2CCN(C3CCCCC3)CC2)c2cc(OC)c(OC)cc2c1=O | inconclusive
COc1ccc(-c2cn3c(C)c(C(=O)NCCN4CCOCC4)sc3n2)cc1 | inconclusive
COCC(=O)Oc1c(S(=O)(=O)c2ccc(C)cc2)c(C)nn1-c1ccccc1 | inconclusive
Cn1c(C(=O)NCCN2CCc3ccccc3C2)cc2c(=O)[nH]c3ccccc3c21 | inconclusive
O=C(Cc1ccccc1)N1CCCC(c2nc(-c3cccs3)no2)C1 (stereo unspecified) | inconclusive
CC(=O)c1c(C)[nH]c(C(=O)N2CCc3ccccc3C2)c1C | inactive: 1%
CC(C)(C)Nc1nc(NC(C)(C)C)nc(-n2ccnc2)n1 | inactive: -5.3%
CCOC(=O)c1oc2ccc(S(=O)(=O)N3CCOCC3)cc2c1C | inconclusive
Cc1ccc2nc3c(cc(C(=O)NCc4ccccc4)c(=N)n3CCCn3ccnc3)c(=O)n2c1 | inactive: -8.6%

Part of the list above, tab-delimited.
SMILES	activation
Cc1cc(N2CCN(C3CCCCC3)CC2)nc2cccc(O)c12	inconclusive
COc1ccccc1N=c1oc2cc(O)ccc2cc1C(N)=O	inconclusive
Nc1ccc2c(c1)CCC2=O	inconclusive
COc1ccc(CCNC(=O)CCCCn2c(=O)[nH]c3ccccc3c2=O)cc1OC	inactive: 4%
COCc1cc(C)nc(SCC(=O)Nc2cccc(C)c2)c1C#N	inconclusive

Going on with the list.

SMILES | activation
CC(=O)c1c[nH]c2ccc(C)cc2c1=O | inconclusive
Cc1cccn2c(=O)c3cc(C(=O)NCC4CCCO4)n(C)c3nc12 (stereo unspecified) | inconclusive
CCN1C(=O)C2(C(C#N)=C(N)Oc3cc(C)oc(=O)c32)c2ccccc21 (stereo unspecified) | inconclusive
O=C(c1ccc2c(c1)OCCO2)C1CCN(C(=O)c2ccc(F)cc2)CC1 | inconclusive
CCOC(=O)c1cnc2nc(C)[nH]n2c1=O | inactive: 7%
Cc1ccsc1-c1nc(CSCC(=O)NCc2ccc3c(c2)OCO3)c(C)o1 | inconclusive
Cc1noc(C)c1S(=O)(=O)N(CC(=O)N1CCCCCC1)c1ccc(C(C)C)cc1 | inconclusive
CCN1CCN(C(c2cccs2)C(C)NC(=O)c2ccccc2F)CC1 (stereo unspecified) | inactive: 9%
O=C(C(NS(=O)(=O)c1cccs1)c1ccccc1)N1CCN(c2ccccc2)CC1 (stereo unspecified) | inconclusive
CCC(C)NC(=O)CS(=O)Cc1nc(-c2cccc(C)c2)oc1C (stereo unspecified) | inconclusive
O=C1CCCCCC1C1(O)C(=O)Nc2ccc(Br)cc21 (stereo unspecified) | inconclusive
S=c1[nH]nc(-c2ccco2)n1-c1cccc2ccccc12 | inconclusive
O=C(OCn1nnc2ccccc2c1=O)C1CCN(S(=O)(=O)c2cccs2)CC1 | inactive: 3.5%
Cc1oc(-c2ccc(Cl)cc2)nc1CN1CCC(C(=O)NCCCN2CCCC2=O)CC1 | inactive: 2%
Cc1cc(N2CCOCC2)nc2ccc(NC(=O)CCC(=O)N3CCCC(C)C3)cc12 (stereo unspecified) | inactive: 0%
Cc1ccc(-n2cc(C(C)(C)C)[nH]c2=S)cc1 | inactive: 0%
CCN(CC)CCn1c(=N)n(CCO)c2ccccc21 | inactive: -8%
CCC(C)(NC(=O)CNC(C)=O)C(=O)NC1CCCCC1 (stereo unspecified) | inconclusive
Cc1ccc2c(c1)NCC(C(=O)NC1CCCCC1)O2 (stereo unspecified) | inconclusive
COc1ccc(-n2nnc3c(SCC(=O)Nc4ccc5c(c4)OCCO5)ncnc32)cc1 | inconclusive
CCOc1ccc(-c2noc(=O)[nH]2)cc1 | inconclusive
CN(CC(=O)NCc1ccco1)S(=O)(=O)c1cccc2cccnc12 | inconclusive
CCOC(=O)Cn1c(=O)oc2cc(S(=O)(=O)NCC3CCCO3)ccc21 (stereo unspecified) | inconclusive
Cc1ccc(NC(=O)CCCC(=O)O)c(Br)c1 | inconclusive
CCC(C(=O)OCC(=O)Nc1c(C)n(C)n(-c2ccccc2)c1=O)c1ccccc1 (stereo unspecified) | inconclusive
O=c1cc(CO)oc(CN2CCN(c3ccccc3F)CC2)c1O | inconclusive

SMILES | activation
O=C1CCCc2c1cc(C(=O)NCCCN1CCOCC1)c(=O)n2-c1ccc(Cl)cc1 | inactive: 5.5%
COc1ccc(-c2cc(C(F)F)n3ncc(C(=O)NCCCN4CCCC4=O)c3n2)cc1 | inconclusive
Cc1ccc(S(=O)(=O)Nc2cc(C(=O)NCCN3CCCC3)ccc2N2CCCCC2)cc1 | inactive: 3%
COCCN1C(=O)c2ccccc2C(C(=O)NCCCN2CCCC2=O)C1c1c[nH]c2ccccc12 (stereo unspecified) | inactive: 10%
CCOC(=O)c1[nH]nc(N)c1NC(=O)c1ccc(Cl)cc1Cl | inactive: 3%
Cc1cccc(N2CCN(C(=O)Cn3nc(Cc4ccncc4)c4ccccc4c3=O)CC2)c1C | inactive: -0.5%
CN(C)c1cc(O)c(C(=S)Nc2ccccc2)c(N(C)C)c1 | inconclusive
COCCCn1c(=S)[nH]c2ncccc2c1=O | inconclusive
COC(=O)CN1C(=O)COc2ccc(Cl)cc21 | inconclusive
Cc1ccc2cc3cc(C(=O)NCc4ccc5c(c4)OCO5)oc3nc2c1 | inconclusive
Cc1nc2c(c(C)nn2-c2ccccc2)c(C)c1Cl | inconclusive
CCOC(=O)Cc1ccc(NS(=O)(=O)c2ccc(SC)cc2)cc1 | inconclusive
COC(=O)c1ccccc1S(=O)(=O)N(CCCO)Cc1cc2c(C)ccc(C)c2[nH]c1=O | inconclusive
COc1ccc(-c2nc3ncccn3c2Nc2ccc3c(c2)OCCO3)cc1 | inactive: -7%
CCSc1nnc(NC(=O)CSc2nc3c(c(=O)n2-c2ccccc2OC)SCC3)s1 | inconclusive
O=c1c2ccccc2[nH]c(=S)n1C1CCCCC1 | inconclusive
CN1C(=O)CS(=O)c2ccc(C(=O)NCCC3=CCCCC3)cc21 (stereo unspecified) | inconclusive
CCNC(=O)c1c(C)[nH]c(C(=O)OCC)c1C | inconclusive
Cc1ccc(S(=O)(=O)c2nc(-c3cccs3)oc2SCC(N)=O)cc1 | inconclusive
O=C(O)CCC(=O)N1CCc2cc(S(=O)(=O)N3CC=C(c4ccccc4)CC3)ccc21 | inconclusive
CCOC(=O)Cn1c(N)c(C(=O)OC)sc1=S | inactive: -9%
Cc1cc2oc3c(c(=O)c2cc1C)C(c1ccc(C(C)C)cc1)N(CCCN1CCOCC1)C3=O (stereo unspecified) | inactive: -8%
Cc1cc(C)n(-c2nc3ccccc3nc2N2CCOCC2)n1 | inconclusive

Part of the list above in another layout.
SMILES	activation
CCNC(=O)c1c(C)[nH]c(C(=O)OCC)c1C	inconclusive
Cc1ccc(S(=O)(=O)c2nc(-c3cccs3)oc2SCC(N)=O)cc1	inconclusive
